Experimental data published in the supplement of paper PMC7877785.
± gives the uncertainty stated by the source. Many entries were measured with a wide error.

Test: self-splicing fitness, log relative to wild type (ln ratio); higher = more splicing; Tetrahymena group I intron in knt gene, E. coli kanamycin selection, DiMSum; sequences stand for … in CUCUCU…GGAGGGAAAAGUUAUCAGGCAUGCACCUGGUAGCUAGUCUUUAAACCAAUAGAUUGCAUCGGUUUAAAAGGCAAGACCGUCAAAUUGCGGGAAAGGGGUCAACAGCCGUUCAGUACCAAGUCUCAGGGGAAACUUUGAGAUGGCCUUGCAAAGGGUAUGGUAAUAAGCUGACGGACAUGGUCCUAACCACGCAGCCAAGUCCUAAGUCAACAGAUCUUCUGUUGAUAUGGAUGCAGUUCACAGACUAAAUGUCGGUCGGGGAAGAUGUAUUCUUCUCAUAAGAUAUAGUCGGACCUCUCCUUAAUGGGAGCUAGCGGAUGAAGUGAUGCAACACUGGAGCCGCUGGGAACUAAUUUGUAUGCGAAAGUAUAUUGAUUAGUUUUGGAGUACUCGUGGUCG
Procedure, shortened: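 The eight P1ex-region nucleotides of an intron in the knt kanamycin-resistance gene on pET-22b(+) were all randomised and the library put into E. coli BL21(DE3). Six replicate transformations were grown overnight at 37°C or 30°C on LB agar with or without 25 μg/mL kanamycin, together with 100 μg/mL carbenicillin, 50 μM IPTG and 0.2% rhamnose. Colonies were pooled and amplicon-sequenced on an Illumina HiSeq 2500. Fitness from DiMSum is the error-weighted combination of wild-type-normalised replicate fold changes, kanamycin over none.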

| Sequence | self-splicing fitness (ln) (37 °C) | self-splicing fitness (ln) (30 °C) |
| --- | --- | --- |
| AGGGAGCAAUAUUACGUCGC | -2.64 ± 0.54 |  |
| UGACAGCAAUAUUACGAGAA |  | -3.25 ± 0.54 |
| UGGGAGCAAUAUUACGCCAC | -1.27 ± 0.74 |  |
| GUGAAGCAAUAUUACGCGAU |  | -0.828 ± 1 |
| AGUGAGCAAUAUUACGACCC | 0.279 ± 0.87 | -1.21 ± 0.54 |
| UAUCAGCAAUAUUACGUUCC | -0.796 ± 0.58 | -1.78 ± 0.84 |
| GAUAAGCAAUAUUACGCUCC | -2.19 ± 0.56 |  |
| GUCGAGCAAUAUUACGCCCA |  | -1.4 ± 1.2 |
| UCGCAGCAAUAUUACGGUAC |  | -2.94 ± 0.61 |
| AUGGAGCAAUAUUACGGAAG | -2.95 ± 0.61 |  |
| AGUUAGCAAUAUUACGCUUC | -3.17 ± 0.52 |  |
| CUGGAGCAAUAUUACGAGGA | -3.06 ± 0.52 |  |
| UGUAAGCAAUAUUACGACUU | 0.0267 ± 0.14 | -1.06 ± 0.09 |
| AGGGAGCAAUAUUACGCAAU |  | -3.43 ± 0.61 |
| CUUUAGCAAUAUUACGAAGC | -0.415 ± 0.79 | -2.42 ± 0.51 |
| GCGGAGCAAUAUUACGCGAA |  | -4.26 ± 1 |
| GAAUAGCAAUAUUACGACGC | -0.0831 ± 0.16 | 0.293 ± 0.13 |
| AAUCAGCAAUAUUACGCGCU | -0.732 ± 0.084 | -1.16 ± 0.075 |
| AAAGAGCAAUAUUACGCCCG | -0.0848 ± 1.2 |  |
| CGAGAGCAAUAUUACGGCUU |  | -2.94 ± 0.5 |
| UGGGAGCAAUAUUACGAUAC | 0.526 ± 0.82 |  |
| GUGUAGCAAUAUUACGCCAG |  | -3.12 ± 1.1 |
| GGGGAGCAAUAUUACGAAAA | -0.693 ± 0.82 | -1.33 ± 0.69 |
| ACCGAGCAAUAUUACGCAGA | -2.51 ± 0.23 | -2.2 ± 0.19 |
| CUUCAGCAAUAUUACGGCGA | -3.05 ± 0.52 | -4.05 ± 0.72 |

| Sequence | self-splicing fitness (ln) (37 °C) | self-splicing fitness (ln) (30 °C) |
| --- | --- | --- |
| UAAUAGCAAUAUUACGAGAA |  | -2.9 ± 0.75 |
| CAAUAGCAAUAUUACGCGGC | -3.8 ± 0.73 |  |
| GAUCAGCAAUAUUACGCAGG | -1.09 ± 0.12 | -3.3 ± 0.29 |
| GUCUAGCAAUAUUACGGCAG |  | -3.15 ± 0.61 |
| GUGUAGCAAUAUUACGAACC | -1.29 ± 0.69 | -2.19 ± 0.65 |
| GCGCAGCAAUAUUACGGCAG | -2.85 ± 0.19 | -3.47 ± 0.15 |
| CUUAAGCAAUAUUACGCAAA | -1.96 ± 0.5 |  |
| CUAGAGCAAUAUUACGUCCA |  | -4.05 ± 0.74 |
| GCCGAGCAAUAUUACGUCAA |  | -4.59 ± 0.59 |
| GCCGAGCAAUAUUACGGAGC | -2.64 ± 1.1 |  |
| GGAGAGCAAUAUUACGCCUG | -1.88 ± 1.2 |  |
| GCCGAGCAAUAUUACGAAAG | -3.16 ± 0.74 |  |
| CGAGAGCAAUAUUACGAGUA | -1.93 ± 0.57 | -1.81 ± 0.73 |
| CUAUAGCAAUAUUACGAGUG | 0.361 ± 0.1 | -0.752 ± 0.071 |
| UGCCAGCAAUAUUACGUUCC | -2.25 ± 0.3 | -1.31 ± 0.31 |
| UGGGAGCAAUAUUACGACAC | 0.791 ± 1.1 | -0.135 ± 0.61 |
| UCGGAGCAAUAUUACGCAUU |  | -3.93 ± 0.52 |
| GAAUAGCAAUAUUACGAGAC | -0.147 ± 0.18 | -3.73 ± 0.74 |
| GCAGAGCAAUAUUACGGUAU | -4.44 ± 0.51 |  |
| AUAUAGCAAUAUUACGGAGG | -3.21 ± 0.6 |  |
| UCCGAGCAAUAUUACGGCAU | -1.62 ± 0.097 | -2.13 ± 0.13 |
| GCGUAGCAAUAUUACGUACG | -2.88 ± 0.17 | -3.93 ± 0.18 |
| CCCCAGCAAUAUUACGCCGA |  | -4.67 ± 1 |
| UACUAGCAAUAUUACGCGCC |  | -1.73 ± 0.91 |

Quoted from the listing.
For self-splicing fitness (ln) (37 °C), CAAUAGCAAUAUUACGCGGC reads -3.8 ± 0.73
For self-splicing fitness (ln) (37 °C), GCCGAGCAAUAUUACGGAGC reads -2.64 ± 1.1
For self-splicing fitness (ln) (37 °C), UCCGAGCAAUAUUACGGCAU reads -1.62 ± 0.097
